This is one part of the list.

Protein sequences, listed by entry. Tags and fused reporters are not part of them. Lines headed by an entry give the natural chain unless they say otherwise; changes in a name come on top.
UniProt O75496: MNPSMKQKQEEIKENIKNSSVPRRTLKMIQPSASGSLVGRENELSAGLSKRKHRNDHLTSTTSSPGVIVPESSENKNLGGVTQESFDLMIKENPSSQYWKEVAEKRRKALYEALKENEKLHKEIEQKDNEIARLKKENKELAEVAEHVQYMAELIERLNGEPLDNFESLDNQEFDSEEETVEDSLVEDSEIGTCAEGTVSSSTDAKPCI
UniProt P13224: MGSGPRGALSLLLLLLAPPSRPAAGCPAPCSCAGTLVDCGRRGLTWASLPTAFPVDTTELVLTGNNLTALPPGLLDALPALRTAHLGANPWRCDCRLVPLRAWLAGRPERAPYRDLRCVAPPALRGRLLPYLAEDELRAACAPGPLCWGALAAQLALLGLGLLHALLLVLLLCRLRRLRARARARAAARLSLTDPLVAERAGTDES
UniProt Q86SX6: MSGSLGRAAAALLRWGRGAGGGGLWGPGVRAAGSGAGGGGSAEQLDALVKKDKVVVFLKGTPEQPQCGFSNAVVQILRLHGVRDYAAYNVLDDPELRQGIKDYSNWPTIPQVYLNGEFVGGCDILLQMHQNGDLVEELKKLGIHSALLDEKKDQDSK
UniProt P00367: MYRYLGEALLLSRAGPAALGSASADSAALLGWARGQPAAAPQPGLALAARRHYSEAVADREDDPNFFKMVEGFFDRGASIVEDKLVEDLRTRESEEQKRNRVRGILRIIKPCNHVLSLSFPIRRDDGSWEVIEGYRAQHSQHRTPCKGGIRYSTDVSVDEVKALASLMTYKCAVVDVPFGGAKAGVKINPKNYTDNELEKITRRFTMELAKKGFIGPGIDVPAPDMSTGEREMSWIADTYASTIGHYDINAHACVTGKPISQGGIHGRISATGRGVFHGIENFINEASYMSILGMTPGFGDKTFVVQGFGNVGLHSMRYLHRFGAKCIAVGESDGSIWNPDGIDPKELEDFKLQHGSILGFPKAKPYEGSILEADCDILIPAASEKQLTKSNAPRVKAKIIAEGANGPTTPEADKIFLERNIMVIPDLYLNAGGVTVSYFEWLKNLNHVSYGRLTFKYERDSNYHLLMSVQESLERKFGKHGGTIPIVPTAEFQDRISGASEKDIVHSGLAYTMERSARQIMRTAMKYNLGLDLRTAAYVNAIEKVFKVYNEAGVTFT
UniProt P46926: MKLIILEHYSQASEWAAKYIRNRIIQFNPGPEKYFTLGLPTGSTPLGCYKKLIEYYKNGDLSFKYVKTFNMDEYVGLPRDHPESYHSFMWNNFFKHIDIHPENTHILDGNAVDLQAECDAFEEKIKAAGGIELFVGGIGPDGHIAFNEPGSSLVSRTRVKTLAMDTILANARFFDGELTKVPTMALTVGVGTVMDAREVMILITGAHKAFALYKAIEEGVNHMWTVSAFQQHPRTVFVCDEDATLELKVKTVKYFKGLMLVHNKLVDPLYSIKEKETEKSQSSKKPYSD
UniProt O76003: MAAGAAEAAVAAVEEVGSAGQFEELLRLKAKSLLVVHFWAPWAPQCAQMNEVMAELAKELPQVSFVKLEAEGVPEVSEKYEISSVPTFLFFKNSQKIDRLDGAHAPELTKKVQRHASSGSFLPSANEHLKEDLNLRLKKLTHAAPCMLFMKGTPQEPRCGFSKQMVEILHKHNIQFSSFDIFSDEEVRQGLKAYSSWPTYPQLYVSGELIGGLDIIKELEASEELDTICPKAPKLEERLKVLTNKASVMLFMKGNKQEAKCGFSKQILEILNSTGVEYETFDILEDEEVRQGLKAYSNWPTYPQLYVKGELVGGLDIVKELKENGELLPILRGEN
UniProt O15228: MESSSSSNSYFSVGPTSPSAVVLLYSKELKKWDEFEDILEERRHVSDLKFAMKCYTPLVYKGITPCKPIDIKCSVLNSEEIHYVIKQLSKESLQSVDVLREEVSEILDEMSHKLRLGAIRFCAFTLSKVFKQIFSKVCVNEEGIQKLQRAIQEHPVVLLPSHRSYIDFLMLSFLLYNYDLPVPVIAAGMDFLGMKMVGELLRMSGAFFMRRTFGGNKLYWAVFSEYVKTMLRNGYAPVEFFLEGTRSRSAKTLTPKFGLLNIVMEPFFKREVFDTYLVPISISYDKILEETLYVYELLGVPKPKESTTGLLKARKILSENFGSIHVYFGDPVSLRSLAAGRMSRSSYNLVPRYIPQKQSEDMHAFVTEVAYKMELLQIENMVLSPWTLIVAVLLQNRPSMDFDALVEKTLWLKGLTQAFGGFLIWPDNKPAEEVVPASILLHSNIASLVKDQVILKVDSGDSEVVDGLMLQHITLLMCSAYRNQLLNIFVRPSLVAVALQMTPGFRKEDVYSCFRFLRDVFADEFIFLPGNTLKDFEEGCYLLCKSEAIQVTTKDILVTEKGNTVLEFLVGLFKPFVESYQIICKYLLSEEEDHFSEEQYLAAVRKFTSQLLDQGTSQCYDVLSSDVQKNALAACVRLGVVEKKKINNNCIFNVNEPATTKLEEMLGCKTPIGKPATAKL
UniProt Q9BXV9: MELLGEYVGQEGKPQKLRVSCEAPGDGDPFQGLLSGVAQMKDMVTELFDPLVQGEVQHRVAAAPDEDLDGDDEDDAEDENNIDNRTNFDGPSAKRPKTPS
UniProt Q2TAP0: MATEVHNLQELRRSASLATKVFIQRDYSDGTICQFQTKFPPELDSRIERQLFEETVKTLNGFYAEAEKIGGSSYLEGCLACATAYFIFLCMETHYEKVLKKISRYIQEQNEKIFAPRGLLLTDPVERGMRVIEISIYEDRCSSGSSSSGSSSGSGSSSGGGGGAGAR
UniProt P62879, whole entry, looked up: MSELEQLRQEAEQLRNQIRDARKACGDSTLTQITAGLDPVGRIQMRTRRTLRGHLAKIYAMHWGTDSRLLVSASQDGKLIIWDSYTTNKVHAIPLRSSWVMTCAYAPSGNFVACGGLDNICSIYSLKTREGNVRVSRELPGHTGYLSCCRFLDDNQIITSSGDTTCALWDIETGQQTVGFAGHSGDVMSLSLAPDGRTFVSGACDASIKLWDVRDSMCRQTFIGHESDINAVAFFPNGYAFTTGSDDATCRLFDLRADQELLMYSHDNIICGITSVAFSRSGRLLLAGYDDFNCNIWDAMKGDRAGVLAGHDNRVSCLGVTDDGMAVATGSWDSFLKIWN
UniProt Q7Z5G4, whole entry, looked up: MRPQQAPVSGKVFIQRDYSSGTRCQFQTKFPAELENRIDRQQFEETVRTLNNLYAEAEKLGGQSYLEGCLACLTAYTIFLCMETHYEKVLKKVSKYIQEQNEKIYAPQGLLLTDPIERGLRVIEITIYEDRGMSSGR
UniProt Q9BRX5: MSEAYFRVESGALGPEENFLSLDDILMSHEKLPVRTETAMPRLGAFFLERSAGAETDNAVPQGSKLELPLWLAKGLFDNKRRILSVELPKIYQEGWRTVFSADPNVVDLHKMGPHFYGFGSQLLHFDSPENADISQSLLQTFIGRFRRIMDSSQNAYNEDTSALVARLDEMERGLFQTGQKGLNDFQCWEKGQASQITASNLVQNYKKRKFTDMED
UniProt Q9HAV0, whole entry, looked up: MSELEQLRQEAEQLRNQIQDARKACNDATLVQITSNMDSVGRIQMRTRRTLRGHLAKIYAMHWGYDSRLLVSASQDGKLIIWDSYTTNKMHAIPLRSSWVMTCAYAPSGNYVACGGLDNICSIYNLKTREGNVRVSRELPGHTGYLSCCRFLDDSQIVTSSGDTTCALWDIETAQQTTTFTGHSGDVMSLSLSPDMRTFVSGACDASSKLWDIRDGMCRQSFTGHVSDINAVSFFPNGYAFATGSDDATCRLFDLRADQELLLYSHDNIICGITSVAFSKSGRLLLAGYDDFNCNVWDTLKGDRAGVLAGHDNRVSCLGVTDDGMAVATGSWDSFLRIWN
UniProt Q9UHW5, whole entry, looked up: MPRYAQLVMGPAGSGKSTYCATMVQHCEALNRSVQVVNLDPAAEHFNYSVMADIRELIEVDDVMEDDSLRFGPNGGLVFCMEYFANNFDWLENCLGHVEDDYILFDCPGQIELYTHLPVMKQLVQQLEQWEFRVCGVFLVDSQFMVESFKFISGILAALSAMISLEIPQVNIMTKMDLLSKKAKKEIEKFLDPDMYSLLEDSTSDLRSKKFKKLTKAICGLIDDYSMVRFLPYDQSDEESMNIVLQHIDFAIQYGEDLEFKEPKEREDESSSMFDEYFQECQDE
UniProt Q14691: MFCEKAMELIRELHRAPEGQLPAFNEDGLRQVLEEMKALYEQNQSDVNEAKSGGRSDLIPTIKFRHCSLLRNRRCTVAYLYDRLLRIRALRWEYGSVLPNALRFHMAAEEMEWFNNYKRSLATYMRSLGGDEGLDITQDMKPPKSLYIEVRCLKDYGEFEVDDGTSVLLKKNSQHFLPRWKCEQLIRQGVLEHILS
UniProt Q53EU6: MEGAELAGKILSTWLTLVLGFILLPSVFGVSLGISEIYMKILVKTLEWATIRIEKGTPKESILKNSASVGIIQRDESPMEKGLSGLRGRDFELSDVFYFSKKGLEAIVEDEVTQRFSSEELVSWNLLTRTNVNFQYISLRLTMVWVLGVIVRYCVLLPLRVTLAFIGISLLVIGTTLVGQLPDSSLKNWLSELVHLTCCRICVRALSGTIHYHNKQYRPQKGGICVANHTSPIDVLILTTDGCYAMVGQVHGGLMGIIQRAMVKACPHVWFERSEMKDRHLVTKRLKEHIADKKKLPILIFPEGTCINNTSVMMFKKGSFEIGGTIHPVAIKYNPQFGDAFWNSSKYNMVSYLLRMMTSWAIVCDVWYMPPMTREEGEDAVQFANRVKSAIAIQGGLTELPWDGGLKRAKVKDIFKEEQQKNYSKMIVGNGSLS
UniProt Q8IW92: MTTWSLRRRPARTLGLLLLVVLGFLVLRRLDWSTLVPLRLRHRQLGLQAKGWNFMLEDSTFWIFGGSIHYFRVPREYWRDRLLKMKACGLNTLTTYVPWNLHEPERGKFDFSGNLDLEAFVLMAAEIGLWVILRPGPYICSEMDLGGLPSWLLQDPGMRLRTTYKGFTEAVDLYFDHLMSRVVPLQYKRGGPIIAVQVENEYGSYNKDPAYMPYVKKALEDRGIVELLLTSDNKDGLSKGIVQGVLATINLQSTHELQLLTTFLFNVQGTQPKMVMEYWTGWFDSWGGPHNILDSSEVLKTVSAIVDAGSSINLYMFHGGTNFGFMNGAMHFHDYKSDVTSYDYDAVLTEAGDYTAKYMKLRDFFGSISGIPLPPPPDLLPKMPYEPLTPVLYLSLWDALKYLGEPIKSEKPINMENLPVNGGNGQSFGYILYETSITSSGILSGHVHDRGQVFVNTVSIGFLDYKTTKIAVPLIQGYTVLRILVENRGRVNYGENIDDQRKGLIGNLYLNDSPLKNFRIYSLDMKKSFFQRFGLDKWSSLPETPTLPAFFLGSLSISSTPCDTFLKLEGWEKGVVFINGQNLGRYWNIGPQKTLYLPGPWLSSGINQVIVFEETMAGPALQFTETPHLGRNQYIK
UniProt Q9Y3E0: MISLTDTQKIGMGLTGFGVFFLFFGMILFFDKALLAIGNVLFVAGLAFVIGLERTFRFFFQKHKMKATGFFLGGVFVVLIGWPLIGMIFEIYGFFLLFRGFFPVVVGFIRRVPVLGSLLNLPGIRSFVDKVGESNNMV
UniProt Q96EK6: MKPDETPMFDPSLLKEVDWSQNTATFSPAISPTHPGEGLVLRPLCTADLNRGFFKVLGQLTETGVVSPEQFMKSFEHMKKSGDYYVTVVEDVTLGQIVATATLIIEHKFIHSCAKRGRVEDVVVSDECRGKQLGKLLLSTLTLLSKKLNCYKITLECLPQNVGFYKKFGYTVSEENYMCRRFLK
UniProt P15104, whole entry, looked up: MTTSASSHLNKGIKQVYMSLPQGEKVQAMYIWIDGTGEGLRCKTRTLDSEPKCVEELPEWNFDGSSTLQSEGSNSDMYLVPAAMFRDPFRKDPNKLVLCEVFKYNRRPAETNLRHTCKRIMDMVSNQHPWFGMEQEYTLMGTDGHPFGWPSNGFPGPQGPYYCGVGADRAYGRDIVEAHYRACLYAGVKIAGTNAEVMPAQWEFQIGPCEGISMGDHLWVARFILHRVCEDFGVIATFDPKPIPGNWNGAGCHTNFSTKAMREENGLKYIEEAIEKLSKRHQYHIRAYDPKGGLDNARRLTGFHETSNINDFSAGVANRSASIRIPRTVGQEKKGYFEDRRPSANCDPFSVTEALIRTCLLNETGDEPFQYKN
UniProt Q49A26: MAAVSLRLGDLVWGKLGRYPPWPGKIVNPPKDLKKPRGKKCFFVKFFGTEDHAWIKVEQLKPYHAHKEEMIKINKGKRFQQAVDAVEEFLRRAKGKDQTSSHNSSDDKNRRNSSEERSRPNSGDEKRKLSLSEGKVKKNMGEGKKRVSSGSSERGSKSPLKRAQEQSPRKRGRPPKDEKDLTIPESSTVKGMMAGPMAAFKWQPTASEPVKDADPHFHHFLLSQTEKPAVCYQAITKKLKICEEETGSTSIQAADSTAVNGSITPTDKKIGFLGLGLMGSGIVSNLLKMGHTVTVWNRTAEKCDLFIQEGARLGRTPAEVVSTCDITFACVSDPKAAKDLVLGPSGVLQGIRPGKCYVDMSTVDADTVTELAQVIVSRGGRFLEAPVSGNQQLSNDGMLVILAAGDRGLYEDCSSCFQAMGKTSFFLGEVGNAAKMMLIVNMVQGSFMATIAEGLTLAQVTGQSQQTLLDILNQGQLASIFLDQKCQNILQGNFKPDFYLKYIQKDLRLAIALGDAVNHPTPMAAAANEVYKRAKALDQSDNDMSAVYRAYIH

Compound in one assay: COc1cccc2cc(-c3nc([C@H]4CC[C@H](C(=O)O)CC4)n4ncnc(N)c34)[nH]c12
The experiment in a line: log2 fold change, soluble protein after heating vs DMSO (PISA); higher = thermal stabilisation; K562 cells, 10 uM, 30 min; active = over 0.2 and 3.5 SD of the protein, either way, in both replicates (recomputed). In a few lines:
(§1)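 Quantification of soluble protein used TMTpro 16plex LC-MS/MS, with channel sums equalised. Samples were the supernatant after 21,000xg for 90 min of pooled aliquots from K562 cells (2×10^6 cells/mL) treated with 10 μM compound for 30 min, heated for 3 min over 48°C-58°C, and extracted in PBS with 0.5% NP-40 at 4°C. Values, from duplicates, describe thermal stability against control samples on a log2 fold-change scale.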
Regarding GMNN (UniProt O75496), the log2 fold change is inactive: 0.

In the case of GP1BB isoform 2 (UniProt P13224), the log2 fold change was inactive: -0.024.

On to GLRX5 (UniProt Q86SX6), for which the log2 fold change is inactive: 0.12.

For the target GLUD1 (UniProt P00367), the log2 fold change is inactive: 0.057.

GNPDA1 (UniProt P46926): the log2 fold change was inactive: 0.089.

For GLMP (UniProt Q8WWB7), the log2 fold change is inactive: -0.082.

Take GLRX3 (UniProt O76003): the log2 fold change was inactive: -0.018.

On to GNPAT (UniProt O15228), for which the log2 fold change was inactive: 0.

GON7 (UniProt Q9BXV9): the log2 fold change is inactive: 0.009.

Take GOLGA7B (UniProt Q2TAP0): the log2 fold change was inactive: -0.046.

As to GNB2 (UniProt P62879), the log2 fold change was inactive: -0.071.

For GOLGA7 (UniProt Q7Z5G4), the log2 fold change is inactive: 0.026.

Turning to GINS3 (UniProt Q9BRX5), the log2 fold change was inactive: -0.018.

Compound in another assay: CS(=O)(=O)CCNCc1ccc(-c2ccc3ncnc(Nc4ccc(OCc5cccc(F)c5)c(Cl)c4)c3c2)o1 [lapatinib]
The assay is described as above. In a few lines:
as §1
For GMEB1 (UniProt Q9Y692), the log2 fold change is inactive: 0.031.

For the target GLO1 (UniProt Q04760), the log2 fold change is inactive: 0.007.

As for GOPC (UniProt Q9HD26), the log2 fold change was inactive: 0.15.

GON4L (UniProt Q3T8J9): the log2 fold change is inactive: 0.038.

With GNB4 (UniProt Q9HAV0), the log2 fold change is inactive: 0.041.

With GPN3 isoform 2 (UniProt Q9UHW5), the log2 fold change is inactive: -0.027.

In the case of GMPS (UniProt P49915), the log2 fold change is inactive: 0.013.

On to GINS1 (UniProt Q14691), for which the log2 fold change is inactive: 0.087.

In the case of GIGYF2 (UniProt Q6Y7W6), the log2 fold change is inactive: -0.016.

Take GLS (UniProt O94925): the log2 fold change was inactive: -0.052.

For the target GPAT3 (UniProt Q53EU6), the log2 fold change was inactive: 0.014.

On to GNPTAB (UniProt Q3T906), for which the log2 fold change was inactive: -0.014.

As for GMPR (UniProt P36959), the log2 fold change is inactive: -0.014.

With GLB1L2 (UniProt Q8IW92), the log2 fold change is inactive: -0.025.

As to GOLT1B (UniProt Q9Y3E0), the log2 fold change was inactive: -0.043.

For the target GMEB2 (UniProt Q9UKD1), the log2 fold change is inactive: -0.022.

With GPD1L (UniProt Q8N335), the log2 fold change was inactive: 0.015.

As to GMFG (UniProt O60234), the log2 fold change is inactive: -0.06.

For the target GNPNAT1 (UniProt Q96EK6), the log2 fold change was inactive: -0.031.

As for GOT2 (UniProt P00505), the log2 fold change is inactive: -0.03.

Regarding GLUL (UniProt P15104), the log2 fold change was inactive: -0.032.

As to GLG1 isoform 2 (UniProt Q92896), the log2 fold change is inactive: 0.029.

Turning to GLYR1 (UniProt Q49A26), the log2 fold change was inactive: 0.169.

GOT1 (UniProt P17174): the log2 fold change is inactive: -0.034.

Consider GMNN (UniProt O75496), for which the log2 fold change was inactive: -0.003.

Turning to GP1BB isoform 2 (UniProt P13224), the log2 fold change was inactive: 0.047.

As to GLRX5 (UniProt Q86SX6), the log2 fold change is inactive: -0.019.

With GLUD1 (UniProt P00367), the log2 fold change was inactive: 0.178.

On to GNPDA1 (UniProt P46926), for which the log2 fold change is inactive: 0.008.

On to GLMP (UniProt Q8WWB7), for which the log2 fold change was inactive: 0.054.

With GLRX3 (UniProt O76003), the log2 fold change is inactive: 0.062.

In the case of GNPAT (UniProt O15228), the log2 fold change was inactive: 0.061.

Regarding GON7 (UniProt Q9BXV9), the log2 fold change was inactive: 0.006.

As for GOLGA7B (UniProt Q2TAP0), the log2 fold change was inactive: -0.066.

For the target GNB2 (UniProt P62879), the log2 fold change was inactive: 0.

Turning to GOLGA7 (UniProt Q7Z5G4), the log2 fold change is inactive: -0.052.

On to GINS3 (UniProt Q9BRX5), for which the log2 fold change is inactive: 0.019.

Compound in the next assay: CS(=O)(=O)N1CCN(Cc2cc3nc(-c4cccc5[nH]ncc45)nc(N4CCOCC4)c3s2)CC1 [pictilisib]
Described as above. In outline:
as §1
As to GMEB1 (UniProt Q9Y692), the log2 fold change is inactive: -0.087.

For GLO1 (UniProt Q04760), the log2 fold change is inactive: -0.003.

As for GOPC (UniProt Q9HD26), the log2 fold change was inactive: 0.08.

With GNB4 (UniProt Q9HAV0), the log2 fold change was inactive: -0.002.

On to GPN3 isoform 2 (UniProt Q9UHW5), for which the log2 fold change is inactive: 0.013.

For the target GMPS (UniProt P49915), the log2 fold change was inactive: 0.003.

GINS1 (UniProt Q14691): the log2 fold change is inactive: -0.092.

Turning to GIGYF2 (UniProt Q6Y7W6), the log2 fold change is inactive: -0.027.

GLS (UniProt O94925): the log2 fold change is inactive: 0.049.

Take GNPTAB (UniProt Q3T906): the log2 fold change is inactive: 0.084.

GMPR (UniProt P36959): the log2 fold change is inactive: 0.008.

On to GLB1L2 (UniProt Q8IW92), for which the log2 fold change was inactive: 0.134.

On to GOLT1B (UniProt Q9Y3E0), for which the log2 fold change is inactive: -0.073.

GMEB2 (UniProt Q9UKD1): the log2 fold change was inactive: 0.101.

For GPD1L (UniProt Q8N335), the log2 fold change was inactive: 0.016.

GMFG (UniProt O60234): the log2 fold change is inactive: 0.03.

In the case of GNPNAT1 (UniProt Q96EK6), the log2 fold change was inactive: -0.017.

As for GOT2 (UniProt P00505), the log2 fold change was inactive: -0.01.

For GLUL (UniProt P15104), the log2 fold change was inactive: -0.001.

With GLG1 isoform 2 (UniProt Q92896), the log2 fold change was inactive: 0.041.

Take GLYR1 (UniProt Q49A26): the log2 fold change was inactive: -0.228.

Regarding GOT1 (UniProt P17174), the log2 fold change is inactive: -0.003.

For the target GMNN (UniProt O75496), the log2 fold change was inactive: 0.023.

In the case of GP1BB isoform 2 (UniProt P13224), the log2 fold change is inactive: 0.05.

On to GLUD1 (UniProt P00367), for which the log2 fold change was active: 0.367.

On to GNPDA1 (UniProt P46926), for which the log2 fold change was inactive: 0.053.

For GLRX3 (UniProt O76003), the log2 fold change is inactive: -0.003.

GNPAT (UniProt O15228): the log2 fold change was inactive: 0.148.

For the target GON7 (UniProt Q9BXV9), the log2 fold change is inactive: -0.048.

For GNB2 (UniProt P62879), the log2 fold change is inactive: 0.13.

With GOLGA7 (UniProt Q7Z5G4), the log2 fold change was inactive: 0.04.

With GINS3 (UniProt Q9BRX5), the log2 fold change is inactive: 0.059.

The values are drawn from the supplement of paper PMC10849652.
